From paper PMC7037732, “Synthesis of Combretastatin A-4 and 3′-Aminocombretastatin A-4 derivatives with Aminoacid Containing Pendants and Study of their Interaction with Tubulin and as Downregulators of the VEGF, hTERT and c-Myc Gene Expression” (Molecules, 2020) come the findings set out here.

Series [1] relates to MCF-7 (breast adenocarcinoma). Nature of the series: Inhibition of cell proliferation (MTT), MCF-7. Conditions: IC50 (HEK-293)/IC50 (MCF-7). The class given is cell-based, human. The source says: (§1) The ability of the synthetic compounds to inhibit cell proliferation was established by means of their IC50 values towards the tumor cell lines HT-29 (human colon adenocarcinoma), MCF-7 (breast adenocarcinoma) and A-549 (human pulmonary adenocarcinoma), as well as towards the nontumor cell line HEK-293 (human embryonic kidney cells). Results for compounds derived from CA-4 are presented in Table 1, along with the calculated selectivity indexes SIA (for HT-29 cell line), SIB (for MCF-7 cell line) and SIc (for A-549 cell line), obtained by dividing the IC50 values of the nontumor cell line (HEK-293) by those of the corresponding tumor cell line. The higher the SI index, the higher the therapeutic safety margin.
(§2) Cell culture media were purchased from Gibco (Grand Island, NY, USA). Fetal bovine serum (FBS) was a product of Harlan-Seralab (Belton, U.K.). Supplements and other chemicals not listed in this section were obtained from Sigma Chemical Co. (St. Louis, MO, USA). Plastics for cell culture were supplied by Thermo Fischer Scientific Inc., Madrid, Spain. All tested compounds were dissolved in DMSO at a concentration of 10 μg/mL and stored at −20 °C until use. HT-29, MCF-7, A-549 and HEK-293 cell lines were maintained in a Dulbecco’s modified Eagle’s medium (DMEM) containing glucose (1 g/L), glutamine (2 mM), penicillin (50 IU/mL), streptomycin (50 μg/mL) and amphotericin B (1.25 μg/mL), supplemented with 10% FBS. Cells from human non-small lung carcinoma (clone A549; ATCC n°: CCL2, MD, USA) were routinely grown at 37 °C in a humidified atmosphere of 5% CO2. Cells were maintained in a standard medium composed of RPMI 1640 (Lonza, Group Ltd., Basel, Switzerland), supplemented with 10% fetal bovine serum (FBS), 2 mM L-glutamine and 1% penicillin and streptomycin (Invitrogen). Cells were free from mycoplasma as determined by MycoAlert tests (Lonza, Group Ltd., Basel, Switzerland).
(§3) A total of 5 × 10^3 HT-29, MCF-7 or HEK-293 cells in a total volume of 100 μL of their respective growth media were incubated with serial dilutions of the tested compounds. The 3-(4,5-dimethylthiazol-2-yl)-2,5-diphenyltetrazolium bromide (MTT; Sigma Chemical Co.) dye reduction assay in a 96-well microplate was used, as previously described. […] The resulting formazan was dissolved in 150 μL of 0.04 N HCl/2-propanol and read at 550 nm. All determinations were carried out in triplicate.

Series [2] concerns HT-29 (human colon adenocarcinoma). Kind of series: Inhibition of cell proliferation (MTT), HT-29. The class given is cell-based. Conditions: IC50 (HEK-293)/IC50 (HT-29).
Source text: as §1, §2, §3

Series [3] relates to A-549 (human pulmonary adenocarcinoma). Kind of series: Inhibition of cell proliferation (MTT), A-549. The class given is cell-based. Conditions: IC50 (HEK-293)/IC50 (A-549).
Source text: as §1
as §2, with “Switzerland). […]” for “Switzerland).”

In turn, `COc1ccc(/C=C\c2cc(OC)c(OC)c(OC)c2)cc1NC(=O)[C@@H](Cc1ccccc1)NC(=O)OCC1c2ccccc2-c2ccccc21` [Compound 9.3] yielded an SIB in series [1] (Table 2) of 2.5. In series [2] (Table 2), the SIA turned out to be 0.9. This molecule also came in with an SIc in series [3] (Table 2) of 0.6.

In series [1] (Table 2), `COc1ccc(/C=C\c2cc(OC)c(OC)c(OC)c2)cc1NC(=O)[C@@H](N)CC(C)C` [Compound 8.4] registered an SIB of 0.9. In series [2] (Table 2), this molecule gave an SIA of 0.9. The SIc in series [3] (Table 2) worked out at 0.01.

In the case of `COc1ccc(/C=C\c2cc(OC)c(OC)c(OC)c2)cc1NC(=O)[C@@H](NC(=O)OCC1c2ccccc2-c2ccccc21)C(C)O` (stereo partly drawn) [Compound 7.7], the SIB in series [1] (Table 2) was 0.5. The molecule further came in with an SIc in series [3] (Table 2) of 0.03.

`COc1ccc(/C=C\c2cc(OC)c(OC)c(OC)c2)cc1NC(=O)[C@H](Cc1ccc(O)cc1)NC(=O)OCC1c2ccccc2-c2ccccc21` [Compound 7.8] yielded an SIB in series [1] (Table 2) of 1.3. This molecule displayed an SIA in series [2] (Table 2) of 0.9. In series [3] (Table 2), this molecule gave an SIc of 0.01.

In series [1] (Table 2), `COc1ccc(/C=C\c2cc(OC)c(OC)c(OC)c2)cc1NC(=O)[C@@H](N)CCSC` [Compound 8.9] registered an SIB of 1.1. In series [2] (Table 2), this molecule gave an SIA of 0.7. This molecule yielded an SIc in series [3] (Table 2) of 0.04.

For the molecule `COc1ccc(/C=C\c2cc(OC)c(OC)c(OC)c2)cc1OCC(=O)N1CCC[C@@H]1C(=O)O` [Compound 6.4], the SIB in series [1] (Table 1) is 1.0. Also, the SIA in series [2] (Table 1) is given as 1.1; in series [2] (Table 1, listed as 6.24), “greater than 1”. This molecule also registered an SIc in series [3] (Table 1) of 0.6.

Molecule `COc1ccc(/C=C\c2cc(OC)c(OC)c(OC)c2)cc1OCC(=O)O` [Compound 2, (Z)-2-(2-Methoxy-5-(3,4,5-trimethoxystyryl)phenoxy)acetic acid] gave an SIB in series [1] (Table 1) of 1.1. The SIA in series [2] (Table 1) is given as 0.4. In series [3] (Table 1), this molecule gave an SIc of 0.3.

In series [1] (Table 1), `COC(=O)[C@H](Cc1ccccc1)NC(=O)COc1cc(/C=C\c2cc(OC)c(OC)c(OC)c2)ccc1OC` [Compound 3.4] registered an SIB of 0.5. Further, the SIA in series [2] (Table 1) is 0.14. The molecule further had an SIc in series [3] (Table 1) of 0.4.

Regarding `COc1ccc(/C=C\c2cc(OC)c(OC)c(OC)c2)cc1OCC(=O)N[C@@H](Cc1ccc(O)cc1)C(=O)O` [Compound 4.8], the SIB in series [1] (Table 1) came out at 0.8. The SIA in series [2] (Table 1) was found to be 0.6.

For the molecule `COc1ccc(/C=C\c2cc(OC)c(OC)c(OC)c2)cc1NC(=O)[C@H](CCSC)NC(=O)OCC1c2ccccc2-c2ccccc21` [Compound 7.9], the SIB in series [1] (Table 2) is 1.6. In series [2] (Table 2), this molecule showed an SIA of 0.2. In series [3] (Table 2), this molecule displayed an SIc of 0.02.

`COc1ccc(/C=C\c2cc(OC)c(OC)c(OC)c2)cc1NC(=O)[C@@H](CC(C)C)NC(=O)OCC1c2ccccc2-c2ccccc21` [Compound 9.2] showed an SIB in series [1] (Table 2) of 0.8. The SIA in series [2] (Table 2) is 0.05. In addition, the SIc in series [3] (Table 2) worked out at 0.05.

In series [1] (Table 1), `COC(=O)CNC(=O)COc1cc(/C=C\c2cc(OC)c(OC)c(OC)c2)ccc1OC` [Compound 3.1] yielded an SIB of 1.1. The same molecule showed an SIA in series [2] (Table 1) of 0.7. In addition, in series [3] (Table 1), the SIc was 0.3.

On to `COc1ccc(/C=C\c2cc(OC)c(OC)c(OC)c2)cc1OCC(=O)N[C@H](CO)C(=O)O` [Compound 6.5], for which the SIB in series [1] (Table 1) was found to be 1.2. Besides, the SIA is given as 1.1 in series [2] (Table 1) and “greater than 1” in series [2] (Table 1, listed as 6.25). Moreover, in series [3] (Table 1), the SIc was less than 0.09.

In series [1] (Table 1), `COc1ccc(/C=C\c2cc(OC)c(OC)c(OC)c2)cc1OCC(=O)N[C@@H](CCSC)C(=O)O` [Compound 4.9] displayed an SIB of 3.1. Moreover, in series [3] (Table 1), the SIc is recorded as less than 0.1.

In turn, `COC(=O)[C@H](Cc1ccc(O)cc1)NC(=O)COc1cc(/C=C\c2cc(OC)c(OC)c(OC)c2)ccc1OC` [Compound 3.8] had an SIB in series [1] (Table 1) of 0.8. Besides, the SIA in series [2] (Table 1) is given as 0.6. This molecule returned an SIc in series [3] (Table 1) of 0.6.

As for `COC(=O)[C@H](CCSC)NC(=O)COc1cc(/C=C\c2cc(OC)c(OC)c(OC)c2)ccc1OC` [Compound 3.9], in series [1] (Table 1), the SIB is 0.8. In series [2] (Table 1), this molecule yielded an SIA of 0.5. In series [3] (Table 1), this molecule yielded an SIc of 0.9.

Turning to `CCOC(=O)COc1cc(/C=C\c2cc(OC)c(OC)c(OC)c2)ccc1OC` [Compound 1, Ethyl (Z)-2-(2-methoxy-5-(3,4,5-trimethoxystyryl)phenoxy)acetate], the SIB in series [1] (Table 1) was determined as 0.4. For the same molecule, the SIc in series [3] (Table 1) worked out at 0.4.

Regarding `COc1ccc(/C=C\c2cc(OC)c(OC)c(OC)c2)cc1NC(=O)[C@@H](NC(=O)OCC1c2ccccc2-c2ccccc21)C(C)C` [Compound 7.3], the SIB in series [1] (Table 2) turned out to be 0.6. In series [2] (Table 2), the SIA worked out at 0.5. Also, the SIc in series [3] (Table 2) is 0.07.

`COC(=O)[C@@H](CO)NC(=O)COc1cc(/C=C\c2cc(OC)c(OC)c(OC)c2)ccc1OC` [Compound 5.5] returned an SIA in series [2] (Table 1) of 0.8. In addition, the SIc in series [3] (Table 1) came out at 0.3.

`COc1ccc(/C=C\c2cc(OC)c(OC)c(OC)c2)cc1NC(=O)[C@H]1CCCN1` [Compound 10.4]: the SIB in series [1] (Table 2) worked out at 5.0. The SIA in series [2] (Table 2) is listed as 0.7. In series [3] (Table 2), this molecule showed an SIc of 0.4.

On to `COC(=O)[C@H](CC(C)C)NC(=O)COc1cc(/C=C\c2cc(OC)c(OC)c(OC)c2)ccc1OC` [Compound 3.3], for which the SIB in series [1] (Table 1) is recorded as 0.5. Also, the SIA in series [2] (Table 1) stood at 0.3.

In turn, `COc1ccc(/C=C\c2cc(OC)c(OC)c(OC)c2)cc1NC(=O)[C@H](C)N` [Compound 8.2] registered an SIB in series [1] (Table 2) of 0.8. The molecule also returned an SIc in series [3] (Table 2) of 0.01.

In series [1] (Table 2), `COc1ccc(/C=C\c2cc(OC)c(OC)c(OC)c2)cc1NC(=O)[C@H](C)NC(=O)OCC1c2ccccc2-c2ccccc21` [Compound 7.2] returned an SIB of 0.8. The molecule also returned an SIc in series [3] (Table 2) of 0.01.

`COc1ccc(/C=C\c2cc(OC)c(OC)c(OC)c2)cc1NC(=O)[C@@H](N)Cc1ccc(O)cc1` [Compound 8.8]: the SIB in series [1] (Table 2) was determined as 0.5. Also, the SIc in series [3] (Table 2) was determined as 0.01.

For the molecule `COC(=O)[C@H](CO)NC(=O)COc1cc(/C=C\c2cc(OC)c(OC)c(OC)c2)ccc1OC` [Compound 3.6], in series [3] (Table 1), the SIc is 0.4.

Regarding `COc1ccc(/C=C\c2cc(OC)c(OC)c(OC)c2)cc1OCC(=O)N[C@H](CC(C)C)C(=O)O` [Compound 6.2], in series [1] (Table 1), the SIB was determined as 2.0. For the same molecule, the SIc in series [3] (Table 1) was determined as 0.7.

Turning to `COc1ccc(/C=C\c2cc(OC)c(OC)c(OC)c2)cc1NC(=O)[C@@H]1CCCN1` [Compound 8.6], in series [1] (Table 2), the SIB was found to be 0.8. In addition, the SIc in series [3] (Table 2) is given as 2.0.

As to `COc1ccc(/C=C\c2cc(OC)c(OC)c(OC)c2)cc1OCC(=O)N1CCC[C@H]1C(=O)O` [Compound 4.5], the SIB in series [1] (Table 1) worked out at 0.5. Besides, the SIc in series [3] (Table 1) was determined as 0.4.

Regarding `COc1ccc(/C=C\c2cc(OC)c(OC)c(OC)c2)cc1OCC(=O)N[C@H](Cc1ccccc1)C(=O)O` [Compound 6.3], the SIB in series [1] (Table 1) came to 1.1. Besides, the SIc in series [3] (Table 1) turned out to be 0.8.

In series [1] (Table 1), `COc1ccc(/C=C\c2cc(OC)c(OC)c(OC)c2)cc1OCC(=O)NCC(=O)O` [Compound 4.1] had an SIB of 0.8. This molecule had an SIc in series [3] (Table 1) of 0.2.

`COc1ccc(/C=C\c2cc(OC)c(OC)c(OC)c2)cc1NC(=O)[C@@H](N)C(C)O` (stereo partly drawn) [Compound 8.7] yielded an SIB in series [1] (Table 2) of 1.1. Besides, the SIc in series [3] (Table 2) is recorded as 0.03.
